Assay results from patent US8569482B2, “Nanoparticulate probe for in vivo monitoring of tissue oxygenation” (priority 2003, dated 2013).

System: bovine lung microvascular endothelial cells (BLMVECs)
Settings: room air

Lithium 5,9,14,18,23,27,32,36-octa-n-butoxy-2,3-naphthalocyanine [LiNc-BuO]
intracellular oxygen concentration: 194 µM
